This experiment has as its target T1, Mytilus galloprovincialis α-CA (native mussel CA) (Mytilus galloprovincialis, UniProt A0A0N9FGL8).
T1 construct: gene CAII
Particulars: read-out: KI (acetazolamide); CO2 1.7-17 mM, 20 mM Tris pH 8.3, 20 mM NaClO4, phenol red; 15 min preincubation at room temperature; errors ±5%, three assays.

Protein sequences, listed by entry. Tags and fused reporters are not part of them. Residues count along the entry.
UniProt A0A0N9FGL8, 2-256: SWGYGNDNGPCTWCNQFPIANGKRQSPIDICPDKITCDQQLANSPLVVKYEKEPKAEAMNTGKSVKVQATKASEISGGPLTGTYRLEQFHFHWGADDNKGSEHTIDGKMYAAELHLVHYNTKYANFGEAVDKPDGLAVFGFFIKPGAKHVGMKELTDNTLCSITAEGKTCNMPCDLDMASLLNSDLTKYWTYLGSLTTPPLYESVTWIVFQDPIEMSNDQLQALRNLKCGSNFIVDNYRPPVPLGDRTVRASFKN

In general, Ki refers to the dissociation constant of the complex between target and ligand, obtained from inhibition or displacement.

As to `CC(=O)Nc1nnc(S(N)(=O)=O)s1` [acetazolamide], the Ki worked out at 380 nM.
